Results deposited as PubChem BioAssay AID1224827 (NIAID, 2016).

- Assay: 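Identify regulators of the macrophage TNF-alpha response to bacterial LPS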 (follow-up of hits)
- Cells: RAW264.7 G9 mouse macrophage reporter clone
- Reagents: single siRNA against mouse genes, 100 nM siRNA
- Timing: siRNA for 2 days, then LPS about 16 h
- Challenge: bacterial lipopolysaccharide (LPS), 10 ng/ml, cells fixed after overnight (about 16 h) stimulation
- Read-out: 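Imaged nuclear TNF reporter intensity, background removed, scaled per plate and to non-targeting control wells, as z-scores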
- Scale: TNF reporter z-score, mean: higher = stronger Tnf promoter reporter signal
- Rule for the call: 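Active siRNA: replicate-mean z-score of 2 or more, or -2 or less; no calls for control wells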
Shown is one part, drawn at random, of about 3,800 deposited reagents. Over the whole deposit, about 2,200 (57%) were called active. 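Active means a strong reporter change in either direction; calls are per siRNA, not per gene; qiagen siRNAs gave weaker effects.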 Entries without a mark were called inactive. The numbers tell different reagents against one gene apart. Further read-outs or replicates are left out here. Reagent sequences are not shown.

Fgf2 (GeneID 14173) #1 → TNF reporter z-score, mean = -2.43 (active)
Fgf2 (GeneID 14173) #2 → TNF reporter z-score, mean = -4.74 (active)
Fgf2 (GeneID 14173) #3 → TNF reporter z-score, mean = -4.91 (active)
Fgf2 (GeneID 14173) #4 → TNF reporter z-score, mean = 5.13 (active)
Fgf2 (GeneID 14173) #5 → TNF reporter z-score, mean = 2.3 (active)
Fgf2 (GeneID 14173) #6 → TNF reporter z-score, mean = 0.449
Nat2 (GeneID 17961) #1 → TNF reporter z-score, mean = 5.35 (active)
Nat2 (GeneID 17961) #2 → TNF reporter z-score, mean = -3.52 (active)
Nat2 (GeneID 17961) #3 → TNF reporter z-score, mean = -5.18 (active)
Nat2 (GeneID 17961) #4 → TNF reporter z-score, mean = 2.16 (active)
Nat2 (GeneID 17961) #5 → TNF reporter z-score, mean = 1.29
Nat2 (GeneID 17961) #6 → TNF reporter z-score, mean = 0.0762
Eif1 (GeneID 20918) #1 → TNF reporter z-score, mean = -0.413
Eif1 (GeneID 20918) #2 → TNF reporter z-score, mean = -1.39
Eif1 (GeneID 20918) #3 → TNF reporter z-score, mean = -4.45 (active)
Eif1 (GeneID 20918) #4 → TNF reporter z-score, mean = 3.86 (active)
Eif1 (GeneID 20918) #5 → TNF reporter z-score, mean = 1.46
Eif1 (GeneID 20918) #6 → TNF reporter z-score, mean = -0.214
Ttf2 (GeneID 74044) #1 → TNF reporter z-score, mean = 1.65
Ttf2 (GeneID 74044) #2 → TNF reporter z-score, mean = -4.77 (active)
Ttf2 (GeneID 74044) #3 → TNF reporter z-score, mean = -5.74 (active)
Ttf2 (GeneID 74044) #4 → TNF reporter z-score, mean = 1.21
Ttf2 (GeneID 74044) #5 → TNF reporter z-score, mean = 1.67
Ttf2 (GeneID 74044) #6 → TNF reporter z-score, mean = -0.346
Rbmx (GeneID 19655) #1 → TNF reporter z-score, mean = -1.79
Rbmx (GeneID 19655) #2 → TNF reporter z-score, mean = -3.18 (active)
Rbmx (GeneID 19655) #3 → TNF reporter z-score, mean = -3.97 (active)
Tuba3b (GeneID 22147) #1 → TNF reporter z-score, mean = -2.24 (active)
Tuba3b (GeneID 22147) #2 → TNF reporter z-score, mean = -2.76 (active)
Tuba3b (GeneID 22147) #3 → TNF reporter z-score, mean = -2.99 (active)
Tuba3b (GeneID 22147) #4 → TNF reporter z-score, mean = 2.45 (active)
Tuba3b (GeneID 22147) #5 → TNF reporter z-score, mean = 2.06 (active)
Tuba3b (GeneID 22147) #6 → TNF reporter z-score, mean = 0.43

3 of these entries in another layout.
| gene symbol | reagent no. | TNF reporter z-score, mean |
| --- | --- | --- |
| Ttf2 (GeneID 74044) | 2 | -4.77 (active) |
| Ttf2 (GeneID 74044) | 3 | -5.74 (active) |
| Ttf2 (GeneID 74044) | 4 | 1.21 |
